Test results reported in article PMC9577956.
No constants are given. Whether binding was seen depends on the method and setting. In cells and extracts the contact can be indirect. Some results given as binding are weak or reduced against the parent protein; the word gives no strength.

By UniProt entry, the sequences of proteins in these tests, tags left out.
UniProt Q9Z1R2: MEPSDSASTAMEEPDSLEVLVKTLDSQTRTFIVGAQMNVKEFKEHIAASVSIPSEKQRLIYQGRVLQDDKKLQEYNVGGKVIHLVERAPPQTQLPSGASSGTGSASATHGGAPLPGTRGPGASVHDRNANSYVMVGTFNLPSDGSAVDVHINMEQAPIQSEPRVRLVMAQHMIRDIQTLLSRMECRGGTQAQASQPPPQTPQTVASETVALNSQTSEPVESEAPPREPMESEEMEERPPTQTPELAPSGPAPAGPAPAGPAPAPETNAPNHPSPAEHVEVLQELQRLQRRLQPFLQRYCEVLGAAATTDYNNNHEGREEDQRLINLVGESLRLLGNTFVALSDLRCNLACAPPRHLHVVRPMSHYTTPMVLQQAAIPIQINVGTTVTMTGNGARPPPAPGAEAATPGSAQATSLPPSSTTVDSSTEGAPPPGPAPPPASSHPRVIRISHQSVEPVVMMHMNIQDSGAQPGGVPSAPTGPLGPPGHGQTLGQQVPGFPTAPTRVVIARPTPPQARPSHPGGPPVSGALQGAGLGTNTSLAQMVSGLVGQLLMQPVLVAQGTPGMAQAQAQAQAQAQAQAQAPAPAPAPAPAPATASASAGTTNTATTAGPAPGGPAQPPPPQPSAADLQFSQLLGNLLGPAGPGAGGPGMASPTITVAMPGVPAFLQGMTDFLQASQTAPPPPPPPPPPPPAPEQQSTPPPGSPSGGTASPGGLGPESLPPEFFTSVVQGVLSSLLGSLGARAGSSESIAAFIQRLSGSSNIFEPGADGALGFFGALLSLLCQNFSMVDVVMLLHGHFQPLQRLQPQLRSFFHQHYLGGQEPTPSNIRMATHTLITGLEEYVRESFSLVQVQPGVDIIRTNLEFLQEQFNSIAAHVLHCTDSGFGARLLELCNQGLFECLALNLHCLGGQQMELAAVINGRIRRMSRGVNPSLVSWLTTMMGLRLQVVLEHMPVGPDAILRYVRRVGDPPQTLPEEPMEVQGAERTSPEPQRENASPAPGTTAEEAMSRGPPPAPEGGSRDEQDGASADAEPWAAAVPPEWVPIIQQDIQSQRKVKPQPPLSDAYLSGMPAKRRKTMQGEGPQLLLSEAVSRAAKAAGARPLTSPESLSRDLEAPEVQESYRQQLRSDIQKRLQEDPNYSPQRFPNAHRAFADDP
UniProt P63017: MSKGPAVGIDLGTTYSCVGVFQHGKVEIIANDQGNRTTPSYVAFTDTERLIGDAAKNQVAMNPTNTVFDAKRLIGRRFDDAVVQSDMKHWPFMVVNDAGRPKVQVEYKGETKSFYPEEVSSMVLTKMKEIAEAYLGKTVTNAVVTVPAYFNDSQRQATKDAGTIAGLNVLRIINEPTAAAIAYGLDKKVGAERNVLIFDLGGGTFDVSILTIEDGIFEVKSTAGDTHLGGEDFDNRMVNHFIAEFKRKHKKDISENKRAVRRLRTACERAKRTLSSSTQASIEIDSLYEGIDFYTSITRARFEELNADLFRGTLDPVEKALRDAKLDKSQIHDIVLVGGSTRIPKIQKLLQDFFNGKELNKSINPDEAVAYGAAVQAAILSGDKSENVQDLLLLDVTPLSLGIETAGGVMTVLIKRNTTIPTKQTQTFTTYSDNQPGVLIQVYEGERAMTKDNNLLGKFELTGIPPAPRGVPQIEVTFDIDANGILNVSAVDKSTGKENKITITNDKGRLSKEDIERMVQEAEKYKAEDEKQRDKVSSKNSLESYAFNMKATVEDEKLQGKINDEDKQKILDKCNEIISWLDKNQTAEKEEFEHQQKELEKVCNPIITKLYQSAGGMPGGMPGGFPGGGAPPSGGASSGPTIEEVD
UniProt Q8R313: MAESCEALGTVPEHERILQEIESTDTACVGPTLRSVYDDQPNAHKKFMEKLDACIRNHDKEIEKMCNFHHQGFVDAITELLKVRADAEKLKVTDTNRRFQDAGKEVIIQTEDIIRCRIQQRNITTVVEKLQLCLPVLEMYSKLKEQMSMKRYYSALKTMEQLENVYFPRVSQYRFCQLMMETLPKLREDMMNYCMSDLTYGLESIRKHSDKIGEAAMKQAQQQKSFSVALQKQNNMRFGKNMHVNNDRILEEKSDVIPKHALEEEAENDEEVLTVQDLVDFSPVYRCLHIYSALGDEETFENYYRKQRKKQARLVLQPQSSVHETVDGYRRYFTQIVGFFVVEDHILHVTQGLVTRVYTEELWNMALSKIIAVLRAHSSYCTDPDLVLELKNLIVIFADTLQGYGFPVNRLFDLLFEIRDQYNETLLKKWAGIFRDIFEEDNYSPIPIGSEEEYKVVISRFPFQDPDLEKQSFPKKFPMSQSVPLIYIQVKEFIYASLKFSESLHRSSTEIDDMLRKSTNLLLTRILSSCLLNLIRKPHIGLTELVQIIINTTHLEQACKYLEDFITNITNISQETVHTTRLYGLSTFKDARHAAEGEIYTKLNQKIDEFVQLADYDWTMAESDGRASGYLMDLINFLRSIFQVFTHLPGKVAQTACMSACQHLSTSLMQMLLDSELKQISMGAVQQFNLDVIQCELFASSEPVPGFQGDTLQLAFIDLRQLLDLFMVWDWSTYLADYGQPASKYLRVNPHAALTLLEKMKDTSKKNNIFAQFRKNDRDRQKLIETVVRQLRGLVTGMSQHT
UniProt O35382: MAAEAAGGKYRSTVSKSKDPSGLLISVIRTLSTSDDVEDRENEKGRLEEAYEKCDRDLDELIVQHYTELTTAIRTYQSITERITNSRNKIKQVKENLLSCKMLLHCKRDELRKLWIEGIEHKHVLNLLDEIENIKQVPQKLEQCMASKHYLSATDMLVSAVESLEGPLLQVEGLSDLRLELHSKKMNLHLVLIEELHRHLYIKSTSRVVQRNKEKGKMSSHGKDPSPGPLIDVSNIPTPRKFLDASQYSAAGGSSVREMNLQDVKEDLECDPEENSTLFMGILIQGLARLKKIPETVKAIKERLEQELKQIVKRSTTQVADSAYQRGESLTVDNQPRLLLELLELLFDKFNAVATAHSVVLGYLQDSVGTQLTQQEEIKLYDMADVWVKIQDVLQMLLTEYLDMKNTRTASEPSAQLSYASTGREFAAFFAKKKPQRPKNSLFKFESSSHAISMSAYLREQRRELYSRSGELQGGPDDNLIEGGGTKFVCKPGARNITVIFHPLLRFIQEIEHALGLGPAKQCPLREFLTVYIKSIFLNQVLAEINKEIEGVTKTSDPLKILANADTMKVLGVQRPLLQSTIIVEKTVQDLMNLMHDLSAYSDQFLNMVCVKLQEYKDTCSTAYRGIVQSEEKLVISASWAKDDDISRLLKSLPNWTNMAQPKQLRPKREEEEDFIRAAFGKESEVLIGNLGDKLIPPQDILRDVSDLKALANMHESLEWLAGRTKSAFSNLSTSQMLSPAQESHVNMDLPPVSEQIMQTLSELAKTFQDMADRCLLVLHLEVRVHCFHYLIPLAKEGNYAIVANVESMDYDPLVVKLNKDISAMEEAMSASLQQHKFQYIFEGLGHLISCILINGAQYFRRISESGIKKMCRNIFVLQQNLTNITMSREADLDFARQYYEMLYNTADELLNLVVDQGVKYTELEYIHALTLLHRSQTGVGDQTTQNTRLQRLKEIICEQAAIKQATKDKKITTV
UniProt O35250: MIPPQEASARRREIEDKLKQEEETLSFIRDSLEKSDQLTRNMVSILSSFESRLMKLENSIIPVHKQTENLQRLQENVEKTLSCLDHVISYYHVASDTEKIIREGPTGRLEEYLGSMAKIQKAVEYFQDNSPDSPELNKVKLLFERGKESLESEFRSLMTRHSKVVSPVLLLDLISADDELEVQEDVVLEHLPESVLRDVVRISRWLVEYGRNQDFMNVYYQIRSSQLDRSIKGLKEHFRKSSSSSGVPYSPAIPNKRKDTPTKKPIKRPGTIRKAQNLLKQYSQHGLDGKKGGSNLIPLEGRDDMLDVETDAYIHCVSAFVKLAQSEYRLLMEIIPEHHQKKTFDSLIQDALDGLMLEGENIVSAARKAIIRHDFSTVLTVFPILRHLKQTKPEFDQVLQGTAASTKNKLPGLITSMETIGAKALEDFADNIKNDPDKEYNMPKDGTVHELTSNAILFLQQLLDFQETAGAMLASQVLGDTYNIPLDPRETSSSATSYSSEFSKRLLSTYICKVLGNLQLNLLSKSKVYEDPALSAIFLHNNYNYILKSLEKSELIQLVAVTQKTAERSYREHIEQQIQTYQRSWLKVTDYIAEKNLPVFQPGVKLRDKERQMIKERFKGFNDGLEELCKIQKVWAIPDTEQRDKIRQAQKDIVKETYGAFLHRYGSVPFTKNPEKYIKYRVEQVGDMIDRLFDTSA

B1: GTPase RalA (protein, UniProt P63321 1-206)
chain: MAANKPKGQNSLALHKVIMVGSGGVGKSALTLQFMYDEFVEDYEPTKADSYRKKVVLDGEEVQIDILDTAGQEDYAAIRDNYFRSGEGFLCVFSITEMESFAATADFREQILRVKEDENVPFLLVGNKSDLEDKRQVSVEEAKNRADQWNVNYVETSAKTRANVDKVFFDLMREIRARKMEDSKEKNGKKKRKSLAKRIRERCCIL
B2: lysosome-associated membrane protein 1 (LAMP-1) (protein, UniProt P11438 25-406)
chain: LFEVKNNGTTCIMASFSASFLTTYETANGSQIVNISLPASAEVLKNGSSCGKENVSDPSLTITFGRGYLLTLNFTKNTTRYSVQHMYFTYNLSDTEHFPNAISKEIYTMDSTTDIKADINKAYRCVSDIRVYMKNVTVVLRDATIQAYLSSGNFSKEETHCTQDGPSPTTGPPSPSPPLVPTNPTVSKYNVTGNNGTCLLASMALQLNITYLKKDNKTVTRAFNISPNDTSSGSCGINLVTLKVENKNRALELQFGMNASSSLFFLQGVRLNMTLPDALVPTFSISNHSLKALQATVGNSYKCNTEEHIFVSKMLSLNVFSVQVQAFKVDSDRFGSVEECVQDGNNMLIPIAVGGALAGLVLIVLIAYLIGRKRSHAGYQTI

Tests used:
[1] = target: Bag6 (not stated (endogenous in rodent liver; rats and mice used)) (UniProt Q9Z1R2); test: co-IP; isolated liver LE/MVBs solubilised in a mild detergent/low salt buffer; primary antibodies and Protein A/G Plus agarose beads; immunoblot
[2] = target: heat shock cognate protein of 70 kDa (Hsc70) (not stated (endogenous in rodent liver; rats and mice used)) (UniProt P63017); test: as above
[3] = target: Bag6 (not stated (endogenous in rodent liver; rats and mice used)) (UniProt Q9Z1R2); test: co-IP; liver cytosol (100,000 x g supernatant); primary antibodies against Bag6, Hsc70 or Tsg101 and Protein A/G Plus agarose beads; immunoblot
[4] = target: heat shock cognate protein of 70 kDa (Hsc70) (not stated (endogenous in rodent liver; rats and mice used)) (UniProt P63017); test: as above
[5] = target: Exoc6 (mouse (endogenous in liver LE/MVBs)) (UniProt Q8R313); test: co-IP; LE/MVBs from livers of 4 m and 22 m old mice solubilised in a mild detergent/low salt buffer; IP with antibodies against Exoc4, RalA or Exoc6 and Protein A/G Plus agarose beads; immunoblot
[6] = target: Exoc4 (mouse (endogenous in liver LE/MVBs)) (UniProt O35382); test: co-IP; isolated liver LE/MVBs solubilised in a mild detergent/low salt buffer; primary antibodies and Protein A/G Plus agarose beads; immunoblot

Molecule | binding [1] | binding [2] | binding [3] | binding [4] | binding [5] | binding [6]
Exoc7 (from UniProt O35250 1-697) | binds | binds | no binding (condition: in the cytosol fraction) | no binding (condition: in the cytosol fraction) |  | 
Exoc4 (from UniProt O35382 1-975) | binds | binds | no binding (condition: in the cytosol fraction) | no binding (condition: in the cytosol fraction) | binds | 
B1 |  |  |  |  |  | binds
B2 |  |  |  |  |  | no binding
